Measurements reported in publication PMC11005689.
Results are given in words; binding and its absence hold for the method and conditions named. In cells and extracts the contact can be indirect. Some results given as binding are weak or reduced against the parent protein; the word gives no strength. Values belong to the binder of their own block, whether it stands above or below them.

By UniProt entry, the sequences of proteins in these tests, tags left out.
UniProt Q7L5N1: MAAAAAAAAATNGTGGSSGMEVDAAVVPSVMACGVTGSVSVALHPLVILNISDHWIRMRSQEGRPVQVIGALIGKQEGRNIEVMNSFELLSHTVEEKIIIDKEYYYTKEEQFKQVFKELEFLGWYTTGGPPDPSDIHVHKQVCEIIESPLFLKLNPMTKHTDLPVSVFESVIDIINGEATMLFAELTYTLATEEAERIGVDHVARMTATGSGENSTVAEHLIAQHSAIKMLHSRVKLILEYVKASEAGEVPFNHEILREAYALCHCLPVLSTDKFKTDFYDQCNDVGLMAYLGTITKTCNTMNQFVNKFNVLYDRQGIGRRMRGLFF
UniProt O43791: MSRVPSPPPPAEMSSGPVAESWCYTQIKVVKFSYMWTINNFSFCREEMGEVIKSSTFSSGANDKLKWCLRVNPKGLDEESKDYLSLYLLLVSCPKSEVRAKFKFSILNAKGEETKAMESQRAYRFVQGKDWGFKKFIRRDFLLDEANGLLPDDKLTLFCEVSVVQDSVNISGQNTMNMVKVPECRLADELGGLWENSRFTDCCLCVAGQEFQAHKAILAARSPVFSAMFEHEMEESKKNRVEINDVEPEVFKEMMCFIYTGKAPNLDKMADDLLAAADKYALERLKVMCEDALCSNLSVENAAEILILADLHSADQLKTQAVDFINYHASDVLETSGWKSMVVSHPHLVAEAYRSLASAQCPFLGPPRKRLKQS

Legend:
[1] = target: CSN6 (293T cells, Figure 4B) (UniProt Q7L5N1); assay: co-IP; immunoprecipitates from 293T cells with MG132 treatment for 6 h, immunoblot (Figure 4B)
[2] = substrate: SPOP (in vitro translated) (UniProt O43791); assay: co-IP; in vitro: constructs transcribed and translated with the TnT kit, co-IP with indicated antibodies (Figure 5C right)
[3] = substrate: SPOP (transfected construct) (UniProt O43791); assay: co-IP; IP assay of HMGCS1‐WT or HMGCS1‐ΔSBC with SPOP (Figure 5G); cells not stated in the legend
[4] = substrate: SPOP (transfected construct) (UniProt O43791); assay: co-IP; 293T cells transfected with indicated constructs and treated with MG132 for 6 h; cell lysate (Figure 5C left)

binding [1]: binds
B1: HMGCS1 (293T cells, Figure 4B) (protein, UniProt Q01581 1-520)
chain: MPGSLPLNAEACWPKDVGIVALEIYFPSQYVDQAELEKYDGVDAGKYTIGLGQAKMGFCTDREDINSLCMTVVQNLMERNNLSYDCIGRLEVGTETIIDKSKSVKTNLMQLFEESGNTDIEGIDTTNACYGGTAAVFNAVNWIESSSWDGRYALVVAGDIAVYATGNARPTGGVGAVALLIGPNAPLIFERGLRGTHMQHAYDFYKPDMLSEYPIVDGKLSIQCYLSALDRCYSVYCKKIHAQWQKEGNDKDFTLNDFGFMIFHSPYCKLVQKSLARMLLNDFLNDQNRDKNSIYSGLEAFGDVKLEDTYFDRDVEKAFMKASSELFSQKTKASLLVSNQNGNMYTSSVYGSLASVLAQYSPQQLAGKRIGVFSYGSGLAATLYSLKVTQDATPGSALDKITASLCDLKSRLDSRTGVAPDVFAENMKLREDTHHLVNYIPQGSIDSLFEGTWYLVRVDEKHRRTYARRPTPNDDTLDEGVGLVHSNIATEHIPSPAKKVPRLPATAAEPEAAVISNGEH

binding [2]: binds
B2: HMGCS1 (in vitro translated) (protein, UniProt Q01581 1-520)
chain: B1 chain

binding [3]: binds
binding [4]: binds
B3: HMGCS1‐WT (transfected construct) (protein, UniProt Q01581 1-520)
chain: B1 chain
